Our source for the binding values is paper PMC3832600.

The chains behind the UniProt entries cited, without tags or fusion partners. Residues count along the entry.
UniProt P05673, residues 26-221: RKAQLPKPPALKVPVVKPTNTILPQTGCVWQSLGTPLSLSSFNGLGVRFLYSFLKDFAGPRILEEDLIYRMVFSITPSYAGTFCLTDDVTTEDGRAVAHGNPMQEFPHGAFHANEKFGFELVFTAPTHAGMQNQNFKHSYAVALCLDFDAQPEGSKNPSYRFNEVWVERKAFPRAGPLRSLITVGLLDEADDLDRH

The assay has as its target truncated Alfalfa mosaic virus coat protein (Alfalfa mosaic virus) (UniProt P05673). In words: SEC + other: negative-stain transmission EM and DLS; VLPs assembled in planta and purified from N. benthamiana. SDS-PAGE, Western blot and N-terminal sequencing of the purified particles. Analytical SEC on an SRT-1000 column in 50 mM phosphate buffer. DLS at 25°C.

These are yes or no findings as the source states them, for the method shown. Some entries that bind do so weakly or less than the wild type.

For the substance “truncated Alfalfa mosaic virus coat protein (from UniProt P05673 26-221) (domain or fragment)”, the binding result is recorded as “binds”.
